Laboratory results as given in paper PMC10206184.
These are yes or no findings as the source states them, for the method shown. In cells and extracts the contact can be indirect. Some binding calls cover weakened binding; strength is not graded here. Tags and fused reporters may be left off the sequences shown.

Key:
SmgGDS-558-HA (human) = biological target: T1, SmgGDS-558-HA (human) (UniProt P52306); assay: co-IP; HEK293T cells co-transfected with SmgGDS-558-HA or SmgGDS-607-HA, myc-tagged RAC1 or RAC1B and increasing amounts of DIRAS1 cDNA and/or empty vector (equal total cDNA); after 24 h lysate immunoprecipitated with the HA antibody; immunoblotting with HA and myc antibodies
T1 sequence: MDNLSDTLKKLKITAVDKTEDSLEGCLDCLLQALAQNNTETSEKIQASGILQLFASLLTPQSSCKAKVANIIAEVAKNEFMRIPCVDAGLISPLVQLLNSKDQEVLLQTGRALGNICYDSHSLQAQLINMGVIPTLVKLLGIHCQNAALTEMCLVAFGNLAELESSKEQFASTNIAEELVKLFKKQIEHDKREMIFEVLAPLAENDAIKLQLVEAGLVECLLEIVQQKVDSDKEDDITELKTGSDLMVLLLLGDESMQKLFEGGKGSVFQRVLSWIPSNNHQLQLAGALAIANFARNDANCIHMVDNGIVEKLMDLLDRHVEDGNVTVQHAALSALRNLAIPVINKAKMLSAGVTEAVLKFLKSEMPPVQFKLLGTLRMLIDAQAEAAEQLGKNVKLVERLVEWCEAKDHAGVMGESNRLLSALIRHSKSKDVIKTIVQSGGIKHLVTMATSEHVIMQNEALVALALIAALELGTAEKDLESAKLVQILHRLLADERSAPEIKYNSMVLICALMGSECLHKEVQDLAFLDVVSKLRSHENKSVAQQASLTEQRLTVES

SmgGDS-607-HA (human) = biological target: T2, SmgGDS-607-HA (human) (UniProt P52306); assay: as above
T2 sequence: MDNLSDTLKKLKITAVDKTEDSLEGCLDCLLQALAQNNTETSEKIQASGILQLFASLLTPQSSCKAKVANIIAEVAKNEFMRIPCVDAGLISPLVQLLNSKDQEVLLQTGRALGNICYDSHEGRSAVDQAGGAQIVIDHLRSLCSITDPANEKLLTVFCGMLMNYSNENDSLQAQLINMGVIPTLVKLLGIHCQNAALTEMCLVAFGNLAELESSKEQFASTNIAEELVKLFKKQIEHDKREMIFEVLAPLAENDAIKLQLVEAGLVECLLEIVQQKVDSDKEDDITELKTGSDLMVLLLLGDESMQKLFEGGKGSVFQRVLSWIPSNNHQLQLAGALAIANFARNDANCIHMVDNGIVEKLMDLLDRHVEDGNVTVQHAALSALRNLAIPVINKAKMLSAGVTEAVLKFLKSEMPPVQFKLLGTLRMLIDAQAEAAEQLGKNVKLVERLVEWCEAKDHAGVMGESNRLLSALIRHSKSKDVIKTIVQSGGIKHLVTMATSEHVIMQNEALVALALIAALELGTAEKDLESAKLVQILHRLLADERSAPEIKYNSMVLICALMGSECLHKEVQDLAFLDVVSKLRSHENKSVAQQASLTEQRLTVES

binding (SmgGDS-558-HA (human)): binds
binding (SmgGDS-607-HA (human)): binds
B1: DIRAS1 (protein, UniProt O95057 1-198)
chain: MPEQSNDYRVVVFGAGGVGKSSLVLRFVKGTFRDTYIPTIEDTYRQVISCDKSVCTLQITDTTGSHQFPAMQRLSISKGHAFILVFSVTSKQSLEELGPIYKLIVQIKGSVEDIPVMLVGNKCDETQREVDTREAQAVAQEWKCAFMETSAKMNYNVKELFQELLTLETRRNMSLNIDGKRSGKQKRTDRVKGKCTLM
